In patent US20250121081A1 (JIANGSU HENGRUI PHARMACEUTICALS, published 2025):
Results are given in words; binding and its absence hold for the method and conditions named. Some binding calls cover weakened binding; strength is not graded here.

Protein sequences, listed by entry. Tags and fused reporters are not part of them. Lines headed by an entry give the natural chain unless they say otherwise; changes in a name come on top. Chains listed by the source or under a name are the forms on record and can include a tag or linker.
rat ROR1-His (Cat. #RO1-R5221, Acro) antigen (D3ZZ97, form named): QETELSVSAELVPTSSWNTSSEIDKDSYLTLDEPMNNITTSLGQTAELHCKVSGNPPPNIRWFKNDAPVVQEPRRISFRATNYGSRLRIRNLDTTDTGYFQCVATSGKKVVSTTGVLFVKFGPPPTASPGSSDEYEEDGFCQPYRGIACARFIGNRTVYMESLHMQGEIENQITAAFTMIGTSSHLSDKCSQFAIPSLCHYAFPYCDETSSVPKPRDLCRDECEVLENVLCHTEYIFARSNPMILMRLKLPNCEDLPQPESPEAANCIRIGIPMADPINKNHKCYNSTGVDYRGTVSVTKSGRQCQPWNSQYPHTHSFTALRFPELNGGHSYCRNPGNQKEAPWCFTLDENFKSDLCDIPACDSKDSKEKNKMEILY

Target: rat ROR1-His (Cat. #RO1-R5221, Acro) antigen (rat) (UniProt D3ZZ97)
Experiment: SPR (Biacore T200)

B1: fully human ROR1 antibody 347 (antibody, human IgG1, kappa, V domains shown)
VH: QVQLVQSGAEVKKPGSSVKVSCKASGYTFTDYYISWVRQGPGQGLEWMGGINAGNGNTNYAQKFQGRVTITADESTSTAYMELSSLRSEDTAVYYCASPGWDVFDIWGQGTMVTVSS
VL: DIQMTQSPSPLSASVGDRVTITCQASQDISNYLNWYQQKPGKAPKLLIYDASNLETGVPSRFSGSGSGTDFTFTISSLQPEDIATYYCQQHEDLPITFGQGTRLEIKR
notes: Full-length human IgG1/kappa
  binding: binds
